Measured values published in PubChem BioAssay AID188 (DTP/NCI, 2004).
Values are animals surviving of animals treated; these mice carried no tumour. Survivors were counted at the toxicity check, usually on the fifth day, unless a day is given; later deaths do not show. Schedules are NCI's codes, read here as Q, the interval in days (D) or hours (H), X, the number of doses.

Test system: CD2F1 mice, nontumored, toxicity/survival
Test: NCI In Vivo Anticancer Drug Screen. Data for tumor model Nontumored Animals (Toxicity Test) in CD2F1 (CDF1) mice

Compound: CCOC(=O)C(CC(C)C)NC(=O)C(Cc1ccc(N(CCCl)CCCl)cc1)NC(C)=O (centres undefined)
- survivor count (dose: 8.0 mg/kg/injection, schedule: Q04DX003 (ip), vehicle: saline with Tween-80): 8 of 8
- survivor count (dose: 8.4 mg/kg/injection, schedule: Q04DX003 (ip), vehicle: saline with Tween-80): 8 of 8
- survivor count (dose: 12.6 mg/kg/injection, schedule: Q04DX003 (ip), vehicle: saline with Tween-80): 8 of 8
- survivor count (dose: 16.0 mg/kg/injection, schedule: Q04DX003 (ip), vehicle: saline with Tween-80): 8 of 8
- survivor count (dose: 18.9 mg/kg/injection, schedule: Q04DX003 (ip), vehicle: saline with Tween-80): 8 of 8
- survivor count (dose: 28.4 mg/kg/injection, schedule: Q04DX003 (ip), vehicle: saline with Tween-80): 8 of 8
- survivor count (dose: 32.0 mg/kg/injection, schedule: Q04DX003 (ip), vehicle: saline with Tween-80): 8 of 8
- survivor count (dose: 42.6 mg/kg/injection, schedule: Q04DX003 (ip), vehicle: saline with Tween-80): 8 of 8
- survivor count (dose: 64.0 mg/kg/injection, schedule: Q04DX003 (ip), vehicle: saline with Tween-80): 8 of 8
- survivor count (dose: 96.0 mg/kg/injection, schedule: Q04DX003 (ip), vehicle: saline with Tween-80): 8 of 8
- survivor count (dose: 128.0 mg/kg/injection, schedule: Q04DX003 (ip), vehicle: saline with Tween-80): 8 of 8
- survivor count (dose: 144.0 mg/kg/injection, schedule: Q04DX003 (ip), vehicle: saline with Tween-80): 8 of 8
- survivor count (dose: 256.0 mg/kg/injection, schedule: Q04DX003 (ip), vehicle: saline with Tween-80): 8 of 8

Compound: C[C@]12C=CC(=O)C=C1CC[C@@H]1[C@@H]2C(=O)C[C@@]2(C)[C@H]1CC[C@]2(O)C(=O)CO
- survivor count (dose: 6.25 mg/kg/injection, schedule: Q03HX008 (ip), vehicle: saline): 8 of 8
- survivor count (dose: 6.25 mg/kg/injection, schedule: Q03HX016 (ip), vehicle: saline): 8 of 8
- survivor count (dose: 6.25 mg/kg/injection, schedule: Q03HX024 (ip), vehicle: saline): 8 of 8
- survivor count (dose: 12.5 mg/kg/injection, schedule: Q03HX008 (ip), vehicle: saline): 8 of 8
- survivor count (dose: 12.5 mg/kg/injection, schedule: Q03HX016 (ip), vehicle: saline): 8 of 8
- survivor count (dose: 12.5 mg/kg/injection, schedule: Q03HX024 (ip), vehicle: saline): 8 of 8
- survivor count (dose: 25.0 mg/kg/injection, schedule: Q01DX009 (ip), vehicle: saline): 8 of 8
- survivor count (dose: 25.0 mg/kg/injection, schedule: Q03HX008 (ip), vehicle: saline): 8 of 8
- survivor count (dose: 25.0 mg/kg/injection, schedule: Q03HX016 (ip), vehicle: saline): 8 of 8
- survivor count (dose: 25.0 mg/kg/injection, schedule: Q03HX024 (ip), vehicle: saline): 8 of 8
- survivor count (dose: 30.0 mg/kg/injection, schedule: Q04DX002 (sc), vehicle: Klucel (hydroxypropylcellulose) (HPC)): 10 of 10
- survivor count (dose: 45.0 mg/kg/injection, schedule: Q04DX002 (sc), vehicle: Klucel (hydroxypropylcellulose) (HPC)): 10 of 10
- survivor count (dose: 50.0 mg/kg/injection, schedule: Q01DX001 (ip), vehicle: saline): 8 of 8
- survivor count (dose: 50.0 mg/kg/injection, schedule: Q01DX001 (oral), vehicle: saline): 8 of 8
- survivor count (dose: 50.0 mg/kg/injection, schedule: Q01DX009 (ip), vehicle: saline): 8 of 8
- survivor count (dose: 50.0 mg/kg/injection, schedule: Q01DX009 (oral), vehicle: saline): 8 of 8
- survivor count (dose: 50.0 mg/kg/injection, schedule: Q03HX008 (ip), vehicle: saline): 8 of 8
- survivor count (dose: 50.0 mg/kg/injection, schedule: Q03HX016 (ip), vehicle: saline): 8 of 8
- survivor count (dose: 50.0 mg/kg/injection, schedule: Q03HX024 (ip), vehicle: saline): 8 of 8
- survivor count (dose: 50.0 mg/kg/injection, schedule: Q04DX003 (ip), vehicle: saline): 8 of 8
- survivor count (dose: 50.0 mg/kg/injection, schedule: Q08DX002 (ip), vehicle: saline): 8 of 8
- survivor count (dose: 67.0 mg/kg/injection, schedule: Q04DX002 (sc), vehicle: Klucel (hydroxypropylcellulose) (HPC)): 10 of 10
- survivor count (dose: 100.0 mg/kg/injection, schedule: Q01DX001 (ip), vehicle: saline): 8 of 8
- survivor count (dose: 100.0 mg/kg/injection, schedule: Q01DX001 (oral), vehicle: saline): 8 of 8
- survivor count (dose: 100.0 mg/kg/injection, schedule: Q01DX009 (ip), vehicle: saline): 8 of 8
- survivor count (dose: 100.0 mg/kg/injection, schedule: Q01DX009 (oral), vehicle: saline): 7 of 8
- survivor count (dose: 100.0 mg/kg/injection, schedule: Q03HX008 (ip), vehicle: saline): 8 of 8
- survivor count (dose: 100.0 mg/kg/injection, schedule: Q03HX016 (ip), vehicle: saline): 8 of 8
- survivor count (dose: 100.0 mg/kg/injection, schedule: Q03HX024 (ip), vehicle: saline): 8 of 8
- survivor count (dose: 100.0 mg/kg/injection, schedule: Q04DX002 (sc), vehicle: Klucel (hydroxypropylcellulose) (HPC)): 10 of 10
- survivor count (dose: 100.0 mg/kg/injection, schedule: Q04DX003 (ip), vehicle: saline): 8 of 8
- survivor count (dose: 100.0 mg/kg/injection, schedule: Q08DX002 (ip), vehicle: saline): 8 of 8
- survivor count (dose: 133.0 mg/kg/injection, schedule: Q01DX001 (sc), vehicle: Klucel (hydroxypropylcellulose) (HPC)): 10 of 10
- survivor count (dose: 200.0 mg/kg/injection, schedule: Q01DX001 (ip), vehicle: saline): 8 of 8
- survivor count (dose: 200.0 mg/kg/injection, schedule: Q01DX001 (oral), vehicle: saline): 8 of 8
- survivor count (dose: 200.0 mg/kg/injection, schedule: Q01DX001 (sc), vehicle: Klucel (hydroxypropylcellulose) (HPC)): 10 of 10
- survivor count (dose: 200.0 mg/kg/injection, schedule: Q01DX009 (ip), vehicle: saline): 8 of 8
- survivor count (dose: 200.0 mg/kg/injection, schedule: Q01DX009 (oral), vehicle: saline): 8 of 8
- survivor count (dose: 200.0 mg/kg/injection, schedule: Q04DX003 (ip), vehicle: saline): 8 of 8
- survivor count (dose: 200.0 mg/kg/injection, schedule: Q08DX002 (ip), vehicle: saline): 8 of 8
- survivor count (dose: 300.0 mg/kg/injection, schedule: Q01DX001 (sc), vehicle: Klucel (hydroxypropylcellulose) (HPC)): 10 of 10
- survivor count (dose: 400.0 mg/kg/injection, schedule: Q01DX001 (ip), vehicle: saline): 8 of 8
- survivor count (dose: 400.0 mg/kg/injection, schedule: Q01DX001 (oral), vehicle: saline): 8 of 8
- survivor count (dose: 400.0 mg/kg/injection, schedule: Q01DX009 (ip), vehicle: saline): 8 of 8
- survivor count (dose: 400.0 mg/kg/injection, schedule: Q01DX009 (oral), vehicle: saline): 7 of 8
- survivor count (dose: 400.0 mg/kg/injection, schedule: Q04DX003 (ip), vehicle: saline): 8 of 8
- survivor count (dose: 400.0 mg/kg/injection, schedule: Q08DX002 (ip), vehicle: saline): 8 of 8
- survivor count (dose: 450.0 mg/kg/injection, schedule: Q01DX001 (sc), vehicle: Klucel (hydroxypropylcellulose) (HPC)): 10 of 10
- survivor count (dose: 800.0 mg/kg/injection, schedule: Q01DX001 (ip), vehicle: saline): 8 of 8
- survivor count (dose: 800.0 mg/kg/injection, schedule: Q01DX001 (oral), vehicle: saline): 8 of 8
- survivor count (dose: 800.0 mg/kg/injection, schedule: Q01DX009 (oral), vehicle: saline): 8 of 8
- survivor count (dose: 800.0 mg/kg/injection, schedule: Q04DX003 (ip), vehicle: saline): 8 of 8
- survivor count (dose: 800.0 mg/kg/injection, schedule: Q08DX002 (ip), vehicle: saline): 8 of 8

Compound: CC(=O)Nc1ncc2ccccc2c1-c1ccc(NC(=O)CCN(CCCl)CCCl)cc1
- survivor count (dose: 1.0 mg/kg/injection, schedule: Q01DX001 (ip), vehicle: other): 2 of 2
- survivor count (dose: 10.0 mg/kg/injection, schedule: Q01DX001 (ip), vehicle: other): 2 of 2
- survivor count (dose: 100.0 mg/kg/injection, schedule: Q01DX001 (ip), vehicle: other): 0 of 2

Compound: COc1ccc(N=NN(C)C)cc1
- survivor count (dose: 19.0 mg/kg/injection, schedule: Q01DX009 (ip), vehicle: Klucel (hydroxypropylcellulose) (HPC)): 10 of 10
- survivor count (dose: 29.0 mg/kg/injection, schedule: Q01DX009 (ip), vehicle: Klucel (hydroxypropylcellulose) (HPC)): 9 of 10
- survivor count (dose: 44.0 mg/kg/injection, schedule: Q01DX009 (ip), vehicle: Klucel (hydroxypropylcellulose) (HPC)): 9 of 10
- survivor count (dose: 67.0 mg/kg/injection, schedule: Q01DX009 (ip), vehicle: Klucel (hydroxypropylcellulose) (HPC)): 6 of 10
- survivor count (dose: 100.0 mg/kg/injection, schedule: Q01DX009 (ip), vehicle: Klucel (hydroxypropylcellulose) (HPC)): 5 of 10
